Laboratory results reported in US20110305696A1.
These are yes or no findings as the source states them, for the method shown. Some binding calls cover weakened binding; strength is not graded here.

The chains behind the UniProt entries cited, without tags or fusion partners. Residues count along the entry.
UniProt A2V9Z4, residues 25-608: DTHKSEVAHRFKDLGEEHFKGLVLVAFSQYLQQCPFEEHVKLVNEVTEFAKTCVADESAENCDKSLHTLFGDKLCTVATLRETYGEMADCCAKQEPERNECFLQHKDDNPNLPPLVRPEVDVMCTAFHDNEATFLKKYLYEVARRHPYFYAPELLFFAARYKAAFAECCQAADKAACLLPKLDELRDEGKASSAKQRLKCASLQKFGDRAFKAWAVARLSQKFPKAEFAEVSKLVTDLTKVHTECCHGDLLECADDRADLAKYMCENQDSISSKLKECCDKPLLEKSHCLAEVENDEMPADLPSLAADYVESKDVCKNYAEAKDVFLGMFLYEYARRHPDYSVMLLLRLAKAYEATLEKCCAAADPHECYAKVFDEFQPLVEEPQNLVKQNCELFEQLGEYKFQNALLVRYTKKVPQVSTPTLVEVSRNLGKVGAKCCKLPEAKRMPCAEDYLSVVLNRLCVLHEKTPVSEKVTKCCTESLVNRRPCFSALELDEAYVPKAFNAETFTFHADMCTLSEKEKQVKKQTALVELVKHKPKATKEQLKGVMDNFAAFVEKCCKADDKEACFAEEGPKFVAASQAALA

Target: Cynomolgus monkey Serum Albumin (Cynomolgus monkey) (UniProt A2V9Z4)
Assay: SPR (BIAcore)

- binding: binds
B1: DOM7h-11-3 (protein)
VL: DIQMTQSPSSLSASVGDRVTITCRASRPIGTTLSWYQQKPGKAPKLLILWNSRLQSGVPSRFSGSGSGTDFTLTISSLQPEDFATYYCAQAGTHPTTFGQGTKVEIKR
